Assay results as given in doi:10.1101/2022.10.30.514401.
Where two headings read alike, the source gives them in different places. These are yes or no findings as the source states them, for the method shown. In cells and extracts the contact can be indirect. Some results given as binding are weak or reduced against the parent protein; the word gives no strength.

The chains behind the UniProt entries cited, without tags or fusion partners.
UniProt P46938: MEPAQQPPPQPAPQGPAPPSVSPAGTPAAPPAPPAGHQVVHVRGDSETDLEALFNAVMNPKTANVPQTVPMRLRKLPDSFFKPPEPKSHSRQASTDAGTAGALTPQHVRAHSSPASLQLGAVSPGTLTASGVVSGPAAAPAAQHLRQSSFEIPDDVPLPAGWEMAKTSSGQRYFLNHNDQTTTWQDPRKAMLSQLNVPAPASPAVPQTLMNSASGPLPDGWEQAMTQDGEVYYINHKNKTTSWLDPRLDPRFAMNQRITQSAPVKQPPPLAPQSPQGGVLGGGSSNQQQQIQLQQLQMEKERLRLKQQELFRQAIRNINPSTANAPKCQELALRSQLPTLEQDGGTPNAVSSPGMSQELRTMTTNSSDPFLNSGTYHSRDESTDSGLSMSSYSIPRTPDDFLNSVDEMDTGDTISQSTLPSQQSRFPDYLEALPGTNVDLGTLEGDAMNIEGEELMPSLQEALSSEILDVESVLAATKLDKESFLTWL
UniProt P63101: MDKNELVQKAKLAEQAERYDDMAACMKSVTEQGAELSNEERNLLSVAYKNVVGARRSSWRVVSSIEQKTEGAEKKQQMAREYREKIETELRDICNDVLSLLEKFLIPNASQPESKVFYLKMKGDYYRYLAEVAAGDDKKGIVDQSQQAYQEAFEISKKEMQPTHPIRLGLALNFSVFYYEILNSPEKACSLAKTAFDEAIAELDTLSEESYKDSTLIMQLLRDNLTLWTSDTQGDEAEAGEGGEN
UniProt P62137: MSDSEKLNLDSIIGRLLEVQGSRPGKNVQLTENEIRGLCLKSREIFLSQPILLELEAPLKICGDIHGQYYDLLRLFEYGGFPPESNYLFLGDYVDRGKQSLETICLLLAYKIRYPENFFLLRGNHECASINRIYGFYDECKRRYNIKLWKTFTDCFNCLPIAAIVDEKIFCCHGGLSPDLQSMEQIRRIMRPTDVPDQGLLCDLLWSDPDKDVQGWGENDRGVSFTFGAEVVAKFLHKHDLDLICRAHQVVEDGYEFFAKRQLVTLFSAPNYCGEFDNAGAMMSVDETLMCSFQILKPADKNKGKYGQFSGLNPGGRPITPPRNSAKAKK

Tests used:
Assay in all cases: co-IP
[1] = target: T1, Lipolysis-stimulated lipoprotein receptor (LSR) (mouse (endogenous in mouse ISCs)) (UniProt Q99KG5)
T1 sequence: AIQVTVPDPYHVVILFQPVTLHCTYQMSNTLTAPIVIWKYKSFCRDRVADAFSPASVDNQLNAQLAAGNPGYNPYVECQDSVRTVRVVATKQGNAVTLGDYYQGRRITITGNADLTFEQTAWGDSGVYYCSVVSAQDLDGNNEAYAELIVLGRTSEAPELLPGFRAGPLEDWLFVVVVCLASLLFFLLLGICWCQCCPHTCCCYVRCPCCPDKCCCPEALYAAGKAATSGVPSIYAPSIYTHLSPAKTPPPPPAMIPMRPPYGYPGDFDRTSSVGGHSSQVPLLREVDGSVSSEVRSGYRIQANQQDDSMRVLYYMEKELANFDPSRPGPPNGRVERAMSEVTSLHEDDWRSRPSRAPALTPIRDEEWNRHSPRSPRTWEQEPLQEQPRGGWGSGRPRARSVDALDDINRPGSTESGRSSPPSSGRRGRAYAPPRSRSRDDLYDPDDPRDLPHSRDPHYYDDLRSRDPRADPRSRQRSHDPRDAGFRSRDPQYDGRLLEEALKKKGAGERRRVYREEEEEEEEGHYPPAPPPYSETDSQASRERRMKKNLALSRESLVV

[2] = target: YAP (pCMV6-YAP, mouse) (mouse) (UniProt P46938)
[3] = target: YAP (mouse (endogenous in mouse ISCs)) (UniProt P46938)
[4] = target: YAP (mouse (endogenous in mouse ISCs)) (UniProt P46938); remark: listed apart in the source

In the case of 14-3-3 zeta (from UniProt P63101 1-245), the binding [1] is reported as “binds”.
In the case of “PPP1CA (pCMV6-Ppp1ca, mouse) (from UniProt P62137 1-330) (enzyme)”, the binding [2] is reported as “no binding”.
With YAP (from UniProt P46938 1-488) the binding [1] was “binds”.
“protein phosphatase 1 catalytic subunit alpha (PPP1CA) (from UniProt P62137 1-330) (enzyme)” was tested, and the binding [3] was “no binding” and the binding [4] was “no binding”.
